# Measurements from PMC10564737, “Structure-based design of a phosphotyrosine-masked covalent ligand targeting the E3 ligase SOCS2” (Nature Communications, 2023).
# Sequences of proteins named here, by UniProt entry; tags and fusion partners are left off. Residues count along the entry.
# UniProt O14508, 32-198: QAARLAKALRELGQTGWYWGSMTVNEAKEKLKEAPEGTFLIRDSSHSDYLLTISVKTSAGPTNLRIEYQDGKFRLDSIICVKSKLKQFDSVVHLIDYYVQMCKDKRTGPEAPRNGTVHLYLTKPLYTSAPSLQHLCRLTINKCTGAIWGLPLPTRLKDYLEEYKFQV
# “And” between values parts separate entries of the source, which are not always exact repeats. Equal values may be shown once. The source gives many values for each of these; only a part stands here.
# Molecular target: T1, SBC2 (Homo sapiens, UniProt O14508)
# T1 construct: SOCS2 (amino acids 32–198); His6 (N, cleaved yes); made in house; host or cells: E. coli BL21(DE3)
# Assay: Covalent fluorescence polarization (FP) probe displacement assay
# Format: binding
# Excerpt: With the specific covalent modification of Cys111 established, we decided to fully characterize MN551 as a covalent SOCS2 inhibitor. […] (Fig. 2g, h, Supplementary Fig. 9). Due to the covalent nature of the competing inhibitor, a time-dependent reduction in the fraction of protein-bound probe is observed. […] This value illustrates reasonable specificity for a covalent inhibitor, with nonetheless scope for future optimization. In addition to characterizing the kinetic covalency parameters, we have also assessed the stability of the MN551 by monitoring its reactivity (half-life >70 min) with reduced glutathione (GSH) (Supplementary Fig. 10)[35].
# To monitor the SBC2-ligand binding kinetics we designed a fluorescein-labeled small-molecule probe - compound 26. The fluorescence polarization (anisotropy) of a threefold serial dilution of 50 µM SBC2 in 10 nM of the probe in 100 mM HEPES pH 7.5, 50 mM NaCl, 0.5 mM TCEP, 2% DMSO was measured to determine the KL (Supplementary Fig. 9A) (BMG Labtech PHERAstar – firmware v1.33). Protein titration and the curves were fitted using GraphPad Prism 9, using one-site fitting models to determine the probe binding constant, KL. Samples were run in triplicate in 384 well plates, using a total volume per well of 16 μL. The bound fraction of the probe is measure using the equation:1 Fb=Af−A/Af−Ab Where,
# A time-dependent reduction in probe anisotropy were measured for a 2-fold serial dilution of […] compound MN551 in 10 nM probe +300 μM SBC2. To determine the initial reversible binding affinity, the initial bound fraction of the probe at time = 0, Fbo (the y-intercept in Fb v/s Time plot, Supplementary Fig. 9B) was plotted against MN551 concentration, and the obtained IC50 is then converted to Ki (Supplementary Fig. 9C)[17]. The slope from Fb versus time graph when divided by Fbo gives rate of covalency, kobs. A plot of kobs v/s MN551 concentration using Michaelis–Menten model of GraphPad Prism 9, provides the parameters kinact (maximum potential rate of inactivation) and KI (concentration of MN551 at which kobs = kinact/2) (Supplementary Fig. 9D, E).
# The observed first-order rate constant, kobs is related to KI and kinact by the equation:2 kobs=kinactI/KI+I
# At [I]«[KI] the above equation is converted to3 […]
# The slope from the plot of kobs against concentration of MN551 gives us the covalent efficiency parameter kinact/KI (Supp Fig. 9F)[30],[33].
# [1] = MN551 714.286 nM, Cycle 17 (80 min), n=1
# [2] = MN551 714.286 nM, Cycle 18 (85 min), n=1
# [3] = MN551 714.286 nM; Cycle 7 (30 min)
# [4] = MN551 714.286 nM; Cycle 8 (35 min)
# [5] = MN551 714.286 nM; Cycle 9 (40 min)
# [6] = MN551 714.286 nM; Cycle 10 (45 min)
# [7] = MN551 714.286 nM; Cycle 11 (50 min)
# [8] = MN551 714.286 nM; Cycle 13 (60 min); n=1
# [9] = MN551 714.286 nM; Cycle 14 (65 min); n=1
# [10] = MN551 714.286 nM; Cycle 15 (70 min); n=1
# [11] = MN551 714.286 nM; Cycle 16 (75 min); n=1
# [12] = MN551 781.25 nM, Cycle 8 (35 min)
# [13] = MN551 781.25 nM, Cycle 9 (40 min)
# [14] = MN551 781.25 nM, Cycle 10 (45 min)
# [15] = MN551 781.25 nM; Cycle 6 (25 min)
# [16] = MN551 781.25 nM; Cycle 7 (30 min)
# [17] = MN551 781.25 nM; Cycle 8 (35 min)
# [18] = MN551 781.25 nM; Cycle 9 (40 min)
# [19] = MN551 781.25 nM; Cycle 10 (45 min)
# [20] = MN551 781.25 nM; Cycle 11 (50 min)
# [21] = MN551 781.25 nM; Cycle 12 (55 min); n=1
# [22] = MN551 781.25 nM; Cycle 13 (60 min); n=1
# [23] = MN551 781.25 nM; Cycle 14 (65 min); n=1
# [24] = MN551 781.25 nM; Cycle 15 (70 min); n=1
# [25] = MN551 781.25 nM; Cycle 16 (75 min); n=1
smiles,measurement,setting,value
O=C(CCl)Nc1cccc(CNC(=O)[C@H](Cc2ccc(OP(=O)(O)O)cc2)NC(=O)Cc2ccc(F)cc2)c1 [MN551],Anisotropy,[1],237.9 and 238.6 and 232.7
same,Anisotropy based on Raw Data (485),[1],243.3 and 241.6 and 239.7
same,"Normalised anisotropy (0 nM MN551 = 1, free probe = 0)",[1],0.6644 and 0.6609 and 0.6309
same,Anisotropy,[2],235.2 and 237 and 232.2
same,"Normalised anisotropy (0 nM MN551 = 1, free probe = 0)",[2],0.6467 and 0.6628 and 0.6468
same,"Fb, fraction bound",MN551 714.286 nM; Cycle 4 (15 min),0.8142 and 0.7832 and 0.8111
same,"Fb, fraction bound",MN551 714.286 nM; Cycle 5 (20 min),0.7929 and 0.7648 and 0.7716
same,"Fb, fraction bound",MN551 714.286 nM; Cycle 6 (25 min),0.7718 and 0.7678 and 0.7476
same,"Anisotropy data 485,520,520",[3],249.7 and 242.4 and 244.5
same,Fb,[3],0.7971 and 0.8141 and 0.8669
same,"Fb, fraction bound",[3],0.7417 and 0.7594 and 0.7543
same,Anisotropy,[4],252.5 and 250.3 and 249
same,"Anisotropy data 485,520,520",[4],248.4 and 243 and 240.7
same,Fb,[4],0.7809 and 0.8055 and 0.8758 and 0.7671 and 0.7269 and 0.741
same,Anisotropy,[5],251.7 and 248.5 and 246.5
same,"Anisotropy data 485,520,520",[5],247.1 and 241.1 and 241
same,Fb,[5],0.765 and 0.8067 and 0.8399 and 0.7665 and 0.7044 and 0.7135
same,Anisotropy,[6],249.6 and 248.6 and 245.3
same,"Anisotropy data 485,520,520",[6],244.8 and 240.9 and 237.3
same,Fb,[6],0.7881 and 0.7625 and 0.8742 and 0.7462 and 0.721 and 0.7103
same,Anisotropy,[7],247.4 and 247 and 246.2
same,"Anisotropy data 485,520,520",[7],240.4 and 237.5 and 238.1
same,Fb,[7],0.7309 and 0.7174 and 0.7362
same,Fb,MN551 714.286 nM; Cycle 11 (50 min); column head blank in this cycle,0.753 and 0.7838 and 0.8332
same,Anisotropy,MN551 714.286 nM; Cycle 12 (55 min); n=1,240.5 and 233.8 and 234.5
same,Anisotropy,MN551 714.286 nM; Cycle 13 (60 min),243.7 and 242.5 and 239.6
same,Anisotropy,[8],237.3 and 232.8 and 234.9
same,Anisotropy based on Raw Data (485),[8],247.7 and 245.6 and 245.2
same,Anisotropy,[9],240.4 and 233.7 and 232.7
same,Anisotropy based on Raw Data (485),[9],246.3 and 243.7 and 244.2
same,Anisotropy,[10],234.2 and 233.9 and 231.4
same,Anisotropy based on Raw Data (485),[10],246.6 and 241.1 and 241
same,Anisotropy,[11],233.1 and 230.4 and 229.7
same,Anisotropy based on Raw Data (485),[11],243.9 and 243.5 and 239.6
same,"Anisotropy data 485,520,520",MN551 714.286 nM; Cycle 20 (95 min); n=1,233.9 and 232.3 and 229.3
same,Fb,"MN551 781.25 nM, Cycle 7 (30 min)",0.7388 and 0.8119 and 0.7637
same,Anisotropy based on Raw Data (485),[12],263.9 and 261.2 and 257.6
same,Fb,[12],0.734 and 0.7973 and 0.7717
same,Anisotropy based on Raw Data (485),[13],259.6 and 259.9 and 257.2
same,Fb,[13],0.6944 and 0.8002 and 0.7768
same,Anisotropy based on Raw Data (485),[14],259.1 and 258.8 and 254.4
same,Fb,[14],0.6913 and 0.7833 and 0.7715
same,Anisotropy,"MN551 781.25 nM, Cycle 13 (60 min), n=1",253.1 and 252.5 and 251.1
same,Anisotropy,"MN551 781.25 nM, Cycle 14 (65 min), n=1",252.9 and 251.3 and 247.3
same,Anisotropy,"MN551 781.25 nM, Cycle 15 (70 min), n=1",250.1 and 248.5 and 246.3
same,Anisotropy,"MN551 781.25 nM, Cycle 16 (75 min), n=1",249.4 and 246.8 and 244.5
same,Anisotropy,"MN551 781.25 nM, Cycle 17 (80 min), n=1",245.8 and 245 and 243.4
same,Anisotropy,"MN551 781.25 nM, Cycle 18 (85 min), n=1",245.1 and 243.2 and 240.3
same,"Fb, fraction bound",MN551 781.25 nM; Cycle 4 (15 min),0.8687 and 0.8686 and 0.8309
same,"Fb, fraction bound",MN551 781.25 nM; Cycle 5 (20 min),0.8321 and 0.8721 and 0.8284
same,Fb,[15],0.859
same,"Fb, fraction bound",[15],0.8392 and 0.8593 and 0.8155
same,"Anisotropy data 485,520,520",[16],259.9 and 262.5 and 265.9
same,Fb,[16],0.8484 and 0.8402 and 0.8905
same,"Fb, fraction bound",[16],0.8272 and 0.8447 and 0.8254
same,Anisotropy,[17],262.2 and 260.4 and 261.8
same,"Anisotropy data 485,520,520",[17],258.5 and 261.9 and 262
same,Fb,[17],0.8192 and 0.8263 and 0.8481 and 0.8337 and 0.8121 and 0.8329
same,Anisotropy,[18],262.4 and 260.9 and 259.7
same,"Anisotropy data 485,520,520",[18],255.4 and 257.4 and 259.2
same,Fb,[18],0.8086 and 0.7984 and 0.8282 and 0.8255 and 0.8299 and 0.8242
same,Anisotropy,[19],257.2 and 257.1 and 255.4
same,"Anisotropy data 485,520,520",[19],254.7 and 257 and 260.1
same,Fb,[19],0.816 and 0.8042 and 0.845 and 0.7833 and 0.8081 and 0.7888
same,Anisotropy,[20],255.5 and 256.4 and 252.8
same,Anisotropy based on Raw Data (485),[20],259 and 256.7 and 252.9
same,Anisotropy,MN551 781.25 nM; Cycle 11 (50 min); n=1,251 and 254.5 and 254.7
same,Anisotropy,[21],249.8 and 253.4 and 255.1
same,Anisotropy based on Raw Data (485),[21],257 and 255 and 249.4
same,Anisotropy,[22],247.8 and 252.2 and 252.5
same,Anisotropy based on Raw Data (485),[22],253.5 and 254 and 249.2
same,Anisotropy,[23],246.6 and 249.8 and 252.1
same,Anisotropy based on Raw Data (485),[23],255 and 251.5 and 247
same,Anisotropy,[24],245 and 249.1 and 251.2
same,Anisotropy based on Raw Data (485),[24],251.7 and 252.7 and 245.9
same,Anisotropy,[25],241.6 and 246.3 and 245.8
same,Anisotropy based on Raw Data (485),[25],251.7 and 249.2 and 242.7
same,"Anisotropy data 485,520,520",MN551 781.25 nM; Cycle 19 (90 min); n=1,243.7 and 241.8 and 238.9
same,"Anisotropy data 485,520,520",MN551 781.25 nM; Cycle 20 (95 min); n=1,243.3 and 240.7 and 237.1
same,Fb,"MN551 1000 nM, Cycle 7 (30 min)",0.631 and 0.6514
same,Fb,"MN551 1000 nM, Cycle 8 (35 min)",0.6552 and 0.6115 and 0.6373
